Assay results from publication PMC3984710.
These are yes or no findings as the source states them, for the method shown. Some binding calls cover weakened binding; strength is not graded here. Sequences can lack the tags named with a protein.

The chains behind the UniProt entries cited, without tags or fusion partners. Where a name states a change or a piece, a line headed by the entry shows the natural chain unless it says otherwise. A line that says so, or that is headed by a name, gives the form on record, which may keep a tag or linker.
ArntΔQ (Arnt deleted of its transactivation domain, amino acid 1–618) fused to the GAL4 DNA-binding domain (P27540, form named): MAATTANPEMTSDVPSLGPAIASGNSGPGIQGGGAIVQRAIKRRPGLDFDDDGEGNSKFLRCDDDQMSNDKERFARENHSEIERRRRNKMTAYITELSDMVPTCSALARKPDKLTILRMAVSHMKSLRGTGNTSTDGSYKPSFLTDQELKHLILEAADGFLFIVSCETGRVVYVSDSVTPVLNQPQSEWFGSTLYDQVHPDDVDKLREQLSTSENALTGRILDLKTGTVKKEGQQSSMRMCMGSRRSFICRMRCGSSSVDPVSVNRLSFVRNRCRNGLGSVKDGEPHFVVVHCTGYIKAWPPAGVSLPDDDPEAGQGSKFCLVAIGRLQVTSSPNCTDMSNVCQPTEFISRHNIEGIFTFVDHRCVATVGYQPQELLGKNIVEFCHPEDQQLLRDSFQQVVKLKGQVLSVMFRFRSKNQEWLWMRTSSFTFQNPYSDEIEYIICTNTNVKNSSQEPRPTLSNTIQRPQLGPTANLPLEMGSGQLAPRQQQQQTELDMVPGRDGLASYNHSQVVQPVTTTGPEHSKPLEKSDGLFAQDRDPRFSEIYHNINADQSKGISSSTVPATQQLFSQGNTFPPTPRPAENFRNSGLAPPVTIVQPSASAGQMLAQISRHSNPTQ

Target: ArntΔQ (Arnt deleted of its transactivation domain, amino acid 1–618) fused to the GAL4 DNA-binding domain (human) (UniProt P27540)
Experiment: two-hybrid; Matchmaker GAL4 Two-hybrid System 3, S. cerevisiae AH109; ArntΔQ on the GAL4 DNA-binding domain (pGBKT7) as bait, Y1 mouse cDNA library on the GAL4 activation domain (pGADT7); growth at high stringency on plates lacking adenine, leucine, tryptophan and histidine; data not shown

binding: binds
B1: C-terminal part of Miz-1 (aa 470–794) fused to the GAL4 activation domain (domain or fragment, UniProt Q60821 470-794)
chain: CGKQFTTSGNLKRHLRIHSGEKPYVCTHCQRQFADPGALQRHVRIHTGEKPCQCVICGKAFTQASSLIAHVRQHTGEKPYVCERCGKRFVQSSQLANHIRHHDNIRPHKCSVCSKAFVNVGDLSKHIIIHTGEKPYLCDKCGRGFNRVDNLRSHVKTVHQGKAGIKILEPEEGGEVSVVTVDDMVTLATEALAATAVTQLTVVPVGAAVTADETEVLKAEISKAVKQVQEEDPNTHILYACDSCGDKFLDANSLAQHVRIHTAQALVMFQTDADFYQQYGPGSTWPAGQMLQAGELVFRPRDGTEGQPTLAESPPTAPDCLPPAE
